Values from PubChem BioAssay AID1259308 (NCATS, 2017).

Screen: 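Knock-downs that increase output of a recombinant reporter protein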 (primary screen)
Cell system: human HEK293 embryonic kidney cells stably expressing firefly luciferase (HEK-CMV-Luc2-Hygro)
Reagents: single siRNA against human genes, 0.8 pmol siRNA per well
Duration: 72 h
Read-out: 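Reporter luminescence and viable-cell signal on separate replicate plates, given as percent of non-targeting control and median/MAD z-scores, plus per-cell luciferase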
Scale: total luciferase, z-score and total luciferase, % of control: higher = more reporter protein produced; luciferase per cell, z-score: higher = more reporter output per viable cell; viable cells, % of control: higher = more viable cells
Call rule: 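Active when the median/MAD z-score for overall luciferase is greater than 3; a gene was taken forward for validation with new siRNAs if at least two of its three siRNAs passed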
Meaning of the calls: active = raised luciferase; inactive = no rise
The whole screen tested about 59,000 reagents; shown is an unselected part. About 1,510 of them (2.6%) count as active. 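Calls use total luciferase alone and ignore viability, so some active siRNAs may act by altering cell number.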 Entries without a mark were called inactive. The numbers tell different reagents against one gene apart.

| gene | siRNA no. | total luciferase, z-score | total luciferase, % of control | luciferase per cell, z-score | viable cells, % of control |
| --- | --- | --- | --- | --- | --- |
| TMEM179 | 1 | -0.401 | 73.9 | -0.688 | 99 |
| TMEM179 | 2 | -0.0135 | 81.6 | -0.243 | 97.2 |
| TMEM179 | 3 | 0.288 | 87.6 | -0.803 | 121 |
| CHD1 | 1 | -0.753 | 66.9 | -1.24 | 104 |
| CHD1 | 2 | -1.26 | 56.8 | -1.96 | 106 |
| CHD1 | 3 | 0.0288 | 82.5 | -0.559 | 107 |
| HLA-DMB | 1 | 1.35 | 109 | 0.566 | 105 |
| HLA-DMB | 2 | -0.896 | 64.1 | -1.04 | 94.2 |
| HLA-DMB | 3 | 0.263 | 87.1 | 0.284 | 90.3 |
| NUP88 | 1 | 1.09 | 104 | 0.488 | 102 |
| NUP88 | 2 | -0.678 | 68.4 | -0.594 | 89.4 |
| NUP88 | 3 | 0.226 | 86.4 | 0.0554 | 95.1 |
| ZNF254 | 1 | -1.44 | 53.2 | -0.295 | 64.2 |
| ZNF254 | 2 | 0.203 | 85.9 | -0.169 | 100 |
| ZNF254 | 3 | -0.48 | 72.3 | -0.138 | 83.8 |
| KCTD3 | 1 | -0.661 | 68.7 | -0.25 | 82 |
| KCTD3 | 2 | -0.925 | 63.5 | -1.08 | 94.3 |
| KCTD3 | 3 | -0.289 | 76.1 | 0.166 | 81.4 |
| SGMS2 | 1 | -2.09 | 40.3 | -2.46 | 86 |
| SGMS2 | 2 | -0.265 | 76.6 | -0.536 | 98.6 |
| SGMS2 | 3 | -0.571 | 70.5 | -0.716 | 95.2 |
| SLC38A3 | 1 | 1.09 | 104 | 1.05 | 87.8 |
| SLC38A3 | 2 | -0.0838 | 80.2 | -0.0288 | 90.3 |
| SLC38A3 | 3 | 0.0301 | 82.5 | -0.44 | 104 |
